From PubChem BioAssay AID2685 (National Center for Advancing Translational Sciences (NCATS), 2010)
This is one part of the list. Further columns of the screen follow, without active or inactive calls. Most of these compounds were active or inconclusive in the main read-out, so they are no random draw. Potencies come from curve fits of mixed quality, noted in brackets.

Assay: qHTS Assay for Lipid Storage Modulators in Drosophila S3 Cells;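 as to cell number change: cells counted by Cell Tracker Red CMTPX staining in the red channel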
Settings: BODIPY lipid droplet fluorescence, 18-24 h; for cell number change: measured here: cell count max response, cells fed with added oleic acid
Procedure, shortened: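 Drosophila S3 cells loaded with oleic acid (400 uM, as added) and compounds at several concentrations; lipid droplets imaged by 488-nm laser-scanning cytometry, 500–530 nm intensity and object ratio to cell channel. Percent activity normalized to 20 uM Triacsin C.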

[1] = measured here: lipid fluorescence (Fed channel) AC50, cells fed with added oleic acid
[2] = measured here: cell number channel AC50, cells fed with added oleic acid

Row | SMILES | cell number change | AC50 [1] | AC50 [2]
1 | N/C(Cn1cncn1)=N\OC(=O)c1ccc(Cl)cc1Cl | -27.2% | 18.4 µM [falling, single point] | 
2 | CCCOc1ccc(NC(=O)C2CC(=O)N/C(=N/N=C(C)/C=C/c3ccc(N(C)C)cc3)S2)cc1 (stereo not given) | -13.5% | 2.59 µM [falling, partial curve] | 
3 | O=C(COC(=O)COc1cccc(C(F)(F)F)c1)NC(=O)NC1CCCCC1 | -41.9% | 29.1 µM [falling, single point] | 29.1 µM [falling, single point]
4 | CCc1ccc(NS(=O)(=O)c2ccc3[nH]cc(C(=O)N4CCCCC4)c(=O)c3c2)cc1 |  | 0.0259 µM [falling, full curve] | 
5 | CC(c1cccnc1)N(C(=O)Nc1ccccc1)C1CCCCC1 (stereo not given) | 20.4% | 29.1 µM [rising, single point] | 
6 | CCOc1cc(CNCCCN2CCOCC2)cc(Cl)c1OCC(=O)NC(C)(C)C | 2.76% | 0.103 µM [rising, full curve, poor fit] | 
7 | Cc1cc(Br)ccc1OCCN1CCCC1 | 10.2% | 13 µM [rising, partial curve] | 
8 | COC(=O)C(C)N(C#N)c1nc(C)cc(C)n1 (stereo not given) | -17.3% | 0.731 µM [falling, single point] | 
9 | O=C(COC(=O)c1ccc[nH]c1=O)NCC12CC3CC(CC(C3)C1)C2 | -8.9% |  | 
10 | O=C1C2C3c4ccccc4C(Br)(c4ccccc43)C2C(=O)N1c1ccccc1O (stereo not given) | -35.3% |  | 29.1 µM [falling, single point]
11 | Cc1ccc(C2C3=C(CCCC3=O)Nc3[nH]c(=S)[nH]c(=O)c32)cc1 (stereo not given) | 0.667% | 6.51 µM [falling, single point] | 7.31 µM [falling, partial curve, poor fit]
12 | O=C(C1CCCN(Cc2ccccc2F)C1)N1CCCC1 (stereo not given) | 6.45% | 16.4 µM [rising, single point] | 
13 | Cc1ccc(N=C(N(C)C)P(=O)(N(C)C)N(C)C)c(C)c1 | -42.4% |  | 0.0291 µM [falling, full curve, poor fit]
14 | O=C(Nc1ccccc1)N1CCC(C(=O)N2CCN(S(=O)(=O)c3cccc(F)c3)CC2)CC1 | 8.99% | 0.731 µM [rising, full curve] | 
15 | COc1ccc(OC)c(S(=O)(=O)Nc2ccc(Oc3ccccc3)cc2)c1 | -36% | 0.082 µM [falling, full curve] | 0.082 µM [falling, full curve]
16 | CCOc1ccc(-n2c(N)c(C(=O)NCc3cccnc3)sc2=S)cc1 | 63.9% |  | 18.4 µM [rising, single point]
17 | C=C(C)c1cccc(C(C)(C)NC(=O)Nc2cc(C)ccn2)c1 | -24.8% | 20.6 µM [falling, single point] | 
18 | CCN1CCCC1CNC(=O)c1cc2cc(OC)c(OC)cc2[nH]1 (stereo not given) | -6.61% | 0.731 µM [rising, single point] | 
19 | NC(=O)C1CCN(C(=O)c2ccc(F)c(S(=O)(=O)N3CCOCC3)c2)CC1 | -8.2% | 6.51 µM [falling, single point] | 6.51 µM [falling, single point]
20 | O=C(c1cccc([N+](=O)[O-])c1)N1CCCC(C(=O)N2CCc3ccccc3C2)C1 (stereo not given) |  |  | 0.00461 µM [rising, full curve, poor fit]

Molecules above that contain an aryl methoxy group:
Row | SMILES | cell number change | AC50 [1] | AC50 [2]
15 | COc1ccc(OC)c(S(=O)(=O)Nc2ccc(Oc3ccccc3)cc2)c1 | -36% | 0.082 µM [falling, full curve] | 0.082 µM [falling, full curve]
18 | CCN1CCCC1CNC(=O)c1cc2cc(OC)c(OC)cc2[nH]1 (stereo not given) | -6.61% | 0.731 µM [rising, single point] | 

Further entries follow.

Row | SMILES | cell number change | AC50 [1] | AC50 [2]
21 | COc1ccc(Cl)cc1N1C(=O)[C@@H]2C(c3cccc(OC)c3OC)=NO[C@@H]2C1=O | 3.35% | 58 µM [falling, partial curve, poor fit] | 
22 | O=C(c1ccc2c(c1)OCCO2)N1CCN(S(=O)(=O)c2c(F)cccc2F)CC1 | -37% |  | 29.1 µM [falling, single point]
23 | CCC(C)n1c(=S)[nH]c2c(sc3ccc([N+](=O)[O-])cc32)c1=O (stereo not given) | -4.29% | 1.64 µM [falling, partial curve] | 
24 | Cc1ccc(S(=O)(=O)N2CCCC2C(=O)OCc2nc3ccccc3s2)cc1 (stereo not given) |  | 6.51 µM [falling, single point] | 
25 | Cc1ccc(-c2nnc(SCC(=O)NC3CC3)o2)cc1 |  | 9.2 µM [falling, partial curve] | 
26 | COc1ccc(N2CCN(C(=O)CSc3nnc4c(C)cc5c(C)cc(C)cc5n34)CC2)cc1 |  | 0.13 µM [rising, full curve, poor fit] | 
27 | CC(C)COC(=O)n1c(=O)oc2ccc(S(=O)(=O)N3CCCCC3)cc21 | -42.8% |  | 
28 | CCn1c(COc2ccc(=O)n(-c3ccccc3)n2)nnc1SCc1ccc(C)cc1 | 1.6% | 7.31 µM [rising, partial curve] | 
29 | CC1CCCN(C2=C(NS(=O)(=O)c3ccc(Br)cc3)C(=O)c3ccccc3C2=O)C1 (stereo not given) | -54.5% | 11.6 µM [falling, single point] | 6.51 µM [falling, full curve]
30 | CC(=O)c1cc(CN2CCCCC2)cc(OC(C)C)c1 | -26.1% | 3.66 µM [falling, full curve] | 1.46 µM [falling, full curve, poor fit]
31 | NS(=O)(=O)c1cccc(NC(=O)CSc2nnc(-c3ccccc3F)n2C2CC2)c1 | -52.6% | 29.1 µM [falling, single point] | 20.6 µM [falling, single point]
32 | CN(C)Cc1c(O)ccc2oc(Cc3ccccc3)cc12 |  |  | 1.64 µM [falling, partial curve]
33 | CC(=O)c1ccc(S(=O)(=O)N(Cc2cc3cc4c(cc3[nH]c2=O)OCCO4)CC2CCCO2)cc1 (stereo not given) | -4.68% | 0.00461 µM [falling, full curve, poor fit] | 
34 | O=C(C1CC1)N1c2ccccc2Sc2ccccc21 | -25.7% | 0.411 µM [falling, partial curve, poor fit] | 
35 | O=C(COc1ccc(C(=S)N2CCOCC2)cc1)N1CCCC1 | -7.08% |  | 
36 | COC(=O)c1ccccc1S(=O)(=O)N1Cc2cc([N+](=O)[O-])ccc2Oc2ccccc21 | 39.6% |  | 9.2 µM [rising, partial curve]
37 | Cc1cccc(C#Cc2ccccc2)n1 | 40.1% | 4.61 µM [rising, full curve] | 0.082 µM [rising, full curve, poor fit]
38 | CCN(CC)CC(=O)Nc1sc(C)cc1C(=O)c1ccccc1 | 147% | 29.1 µM [rising, single point] | 18.4 µM [rising, partial curve]
39 | S=C(Nc1ccccc1)N1N=CCC1c1ccccc1 (stereo not given) | 25% | 2.31 µM [rising, partial curve] | 
40 | COc1cc(NC(=S)N2CCN(S(=O)(=O)c3ccc(F)cc3)CC2)cc(OC)c1 | -12.9% | 29.1 µM [falling, single point] | 

Row | SMILES | cell number change | AC50 [1] | AC50 [2]
41 | c1ccc(-c2nnc(-c3ccccn3)s2)nc1 | -1.91% |  | 
42 | CCCn1c(-c2ccncc2)n[nH]c1=S | 22.4% |  | 
43 | O=C(NCc1ccco1)c1ccc2c(c1)N(Cc1ccc(Cl)cc1)CCS2 |  |  | 0.082 µM [rising, full curve, poor fit]
44 | CC(=O)Nc1ccc(/C=N/NC(=O)c2cc3cc(C)ccc3nc2C)cc1 | 47.5% |  | 0.116 µM [rising, full curve, poor fit]
45 | O=C(NCC(=O)N(CCc1ccccc1)C(C(=O)NC1CCCC1)c1cccnc1)c1ccco1 (stereo not given) |  | 0.517 µM [rising, full curve] | 0.651 µM [rising, full curve]
46 | CCOC(=O)c1cc(C)sc1/N=C/C1C(=O)CCCC1=O | 6.93% | 16.4 µM [rising, partial curve] | 
47 | COc1ccc(NC(=O)Cn2nnc3ccccc32)c([N+](=O)[O-])c1 | 68.8% | 2.59 µM [rising, full curve] | 2.59 µM [rising, full curve]
48 | COc1ccc(CN2CCC(n3nccc3NC(=O)C3CC3)CC2)c(OC)c1OC | 16.1% | 4.11 µM [rising, full curve] | 
49 | CCOC(=O)Nc1ccc2c(c1)N(C(=O)CCN(CC)CC)c1ccccc1S2=O (stereo not given) | -59.8% |  | 29.1 µM [falling, single point]
50 | COc1ccc(NC(=O)COC(=O)CC2Sc3ccccc3NC2=O)cc1 (stereo not given) | 2.21% |  | 
51 | Cc1ccc(NC(=O)COC(=O)C2CC2(Cl)Cl)cc1C (stereo not given) | 21.3% | 1.46 µM [falling, partial curve, poor fit] | 
52 | Cc1ccc(SCc2[nH]nc3c2C2(C(=O)N(C)c4ccccc42)C(C#N)=C(N)O3)cc1 (stereo not given) | 27.5% | 5.17 µM [falling, partial curve] | 
53 | O=C(Nc1cccc(S(=O)(=O)NC2=NCCCCC2)c1)c1cccnc1Cl | -36.1% | 14.6 µM [falling, partial curve] | 7.31 µM [falling, partial curve, poor fit]
54 | CSCC[C@H](NC(=O)OCc1ccccc1)C(=O)O | -8.49% | 23.1 µM [falling, partial curve] | 
55 | S=C(Nc1ccccc1Cl)N(CCCN1CCOCC1)Cc1ccco1 | 2.23% | 2.31 µM [rising, single point] | 
56 | Cn1nccc1C(=O)N1CCN(c2cccc(C(F)(F)F)c2)CC1 | 14.6% | 29.1 µM [falling, single point] | 
57 | COc1ccc(NS(=O)(=O)c2ccc(N3CCCCC3)c(N)c2)cc1 | -47.3% | 0.82 µM [falling, full curve, poor fit] | 14.6 µM [falling, partial curve, poor fit]
58 | O=C(Nc1ccc(Br)cc1)c1ccco1 | 21.8% | 2.59 µM [falling, partial curve] | 

Fetched by compound from the entries so far (2):
Row | SMILES | cell number change | AC50 [1] | AC50 [2]
45 | O=C(NCC(=O)N(CCc1ccccc1)C(C(=O)NC1CCCC1)c1cccnc1)c1ccco1 (stereo not given) |  | 0.517 µM [rising, full curve] | 0.651 µM [rising, full curve]
49 | CCOC(=O)Nc1ccc2c(c1)N(C(=O)CCN(CC)CC)c1ccccc1S2=O (stereo not given) | -59.8% |  | 29.1 µM [falling, single point]
